At least one compound was matched to its structure with a doubt left.
Assays:
[1] = tested on: ovariectomized mature female rat; assay: In vivo assay, ovariectomized mature female rats (12 weeks); settings: OVX rats
From the text: In animal models of osteoporosis, androgens increase bone density and strength in male rats (Wakely et al., J Bone & Mineral Research 6: 325-330 (1991) and Vandenput et al., Calcified Tissue International 70: 170-175 (2002)) and female rats (Tobias et al., Am J Physiology 267: E853-E859 (1994) and Coxam et al., Bone 19: 107-114 (1996)). The ovariectomized mature female rat model was used to assess the effects of orally administered compounds provided herein, such as Compound 102, on bone as well as other efficacy and side-effect endpoints including muscle mass, fat mass and clitoral gland weight.
In this assay, approximately three-month old rats were acclimated in a vivarium for one week. After acclimation, rats were anesthetized with Avertin and the ovariectomy (OVX) was performed using the dorsal approach. For the sham procedure, the surgical procedure was conducted per protocol, and the ovaries exteriorized but not removed. After recovery, no further experimental manipulations were performed for seven weeks, at which point the rats were scanned by dual energy x-ray absorptiometry and sorted into experimental groups based upon femoral bone mineral content (BMC). Three dosages of Compound 102 were tested (0.03, 0.3 and 3 mg/kg/day PO). For comparison, ostarine, a known non-steroidal SARM, was tested at the same dosages (0.03, 0.3 and 3 mg/kg/day PO). In addition, reference compounds estradiol and testosterone were administered. Estradiol was administered subcutaneously to one ovariectomized group at a dose of 0.1 mg/kg/day and testosterone propionate was administered subcutaneously to another ovariectomized group at a dose of 1 mg/kg/day.
Treatment continued once daily for 12 weeks, at which point animals were euthanized and tissues were collected for further analysis. Animals received subcutaneous injections of fluorochrome markers for bone histomorphometric analysis. Alizarian Red S was prepared as a 3% solution and given at a dose of 30 mg/kg at the time of the baseline scan. Calcein was administered 10 days and 3 days prior to necropsy.
After the 14th dose, approximately 250 μL venous blood was collected via percutaneous jugular puncture from the rats at 0, 0.5, 1, 2, 4 and 6 hours post-dosing. The blood samples were collected into lithium-heparin tubes (Becton Dickinson, Franklin Lakes, N.J.). Plasma fractions were collected for pharmacokinetic analysis. Approximately 24 hours after the last dose, rats were sacrificed by cardiac exsanguination, and blood was collected into serum separator tubes (Becton Dickinson), and the gastrocnemius muscle, plantaris muscle, uterus, clitoral glands, clitoris and inguinal fat pads were isolated, blotted and weighed individually. Uterine weight measurements can be inaccurate in surgically ovariectomized rats due to the potential loss of uterine tissue at the tips of the uterine horns during removal of the ovaries. To minimize this variability, the length of the uterine horns was measured and the uterine weight was reported normalized to uterine length. The left femur and lumbar vertebra L5 were wrapped in saline-soaked gauze and stored at −20° C. for biochemical analysis. The right femur and lumbar vertebrae L3-L4 were collected and stored in 70% ethanol for histomorphometry. The right tibia was collected in formalin for histological analysis. The left tibia was collected on dry ice and stored at −20° C. for measurement of alkaline phosphatase activity.
Compound 102 and ostarine individually were formulated in a solution containing 5% Tween-80 polysorbate, 90% PEG-400 polyethylene glycol, and 5% polyvinylpyrrolidone K30. The mixture was stirred and sonicated in a water bath for 30 minutes until the compound dissolved into a solution. After sonication, 1% carboxymethyl cellulose (CMC) in water was added to the solution in a 9:1 ratio (9 parts CMC/water solution to 1 part PEG-400/Tween-80/PVP). Compound 102 and ostarine were administered orally in a volume of 4 mL/kg. […]

[2] = biological target: T1, hMR (Homo sapiens, UniProt P08235); assay: Co-transfection assay, other nuclear receptors: hMR; type: cell-based
T1 construct: expressed in transfected cells
T1 sequence (P08235 1-984): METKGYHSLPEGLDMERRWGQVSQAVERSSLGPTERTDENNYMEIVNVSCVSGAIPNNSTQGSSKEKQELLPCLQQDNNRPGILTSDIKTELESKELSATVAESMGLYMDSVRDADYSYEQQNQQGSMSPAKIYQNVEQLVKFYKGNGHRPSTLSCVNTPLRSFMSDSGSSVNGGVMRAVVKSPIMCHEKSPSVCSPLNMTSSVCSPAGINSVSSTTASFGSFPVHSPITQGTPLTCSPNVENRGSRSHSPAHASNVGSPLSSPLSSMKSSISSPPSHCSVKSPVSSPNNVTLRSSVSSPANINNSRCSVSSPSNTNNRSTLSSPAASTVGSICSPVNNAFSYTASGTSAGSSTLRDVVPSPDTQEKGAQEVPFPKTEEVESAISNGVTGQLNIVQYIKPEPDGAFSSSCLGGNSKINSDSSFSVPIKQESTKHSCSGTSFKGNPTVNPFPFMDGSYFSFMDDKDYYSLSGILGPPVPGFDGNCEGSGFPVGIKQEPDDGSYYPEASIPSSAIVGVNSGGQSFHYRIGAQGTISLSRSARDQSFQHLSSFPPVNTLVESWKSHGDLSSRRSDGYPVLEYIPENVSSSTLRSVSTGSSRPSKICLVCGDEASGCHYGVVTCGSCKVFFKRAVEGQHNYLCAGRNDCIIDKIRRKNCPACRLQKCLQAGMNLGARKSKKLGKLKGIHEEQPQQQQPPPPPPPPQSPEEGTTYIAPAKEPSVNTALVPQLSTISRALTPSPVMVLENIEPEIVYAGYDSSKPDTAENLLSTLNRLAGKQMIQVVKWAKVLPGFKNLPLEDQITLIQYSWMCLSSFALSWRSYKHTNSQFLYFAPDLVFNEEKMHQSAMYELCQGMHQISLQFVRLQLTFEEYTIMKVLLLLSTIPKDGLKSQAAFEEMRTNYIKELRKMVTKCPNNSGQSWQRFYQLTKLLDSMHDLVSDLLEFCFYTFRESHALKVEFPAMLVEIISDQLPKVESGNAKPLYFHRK

With `N#Cc1ccc(N2CCC[C@@H]2[C@@H](O)C(F)(F)F)cc1C(F)(F)F` [Compound 102, R,R-4-(2-(1-Hydroxyl-2,2,2-trifluoroethyl)-pyrrolidinyl)-2-trifluoromethyl-benzonitrile] the “trabecular bone volume (lumbar spine)” value ([1]; 0.3 mg/kg dose) was “increase in trabecular bone volume”, the “alkaline phosphatase activity from isolated tibiae” value ([1]; 12 weeks) was “significantly increased” and the “gastrocnemius weight and plantaris weight” value ([1]; 12 weeks) was “significantly increased”. The “whole femur bending stiffness” value ([1]; 12 weeks, 3-point bending) was “significantly increased”, the “whole femur bending strength” value ([1]; 12 weeks, 3-point bending) was “significantly increased” and the “periosteal bone formation / anabolic activity on the periosteal surface” value ([1]; 12 weeks, histomorphometry) was “significantly increased”. The “periosteal mineral apposition rates (mid-femur)” value ([1]; 12 weeks, histomorphometry) was “similarly increased”, the “trabecular bone (lumbar spine) mineralizing surface and bone formation rates” value ([1]; 12 weeks, histomorphometry) was “significantly suppressed” and the serum osteocalcin ([1]; 12 weeks, versus vehicle-treated OVX controls) was “significantly suppressed”. The “body weight gain from baseline compared to vehicle” value ([1]; 12 weeks, Compound 102/ostarine 0.03, 0.3, 3 mg/kg/day PO, testosterone propionate 1 mg/kg/day s.c.) was “significantly increased weight gain from baseline compared to vehicle at all the doses tested”, the “inguinal fat pad weight” value ([1]; 12 weeks, any dose, estradiol 0.1, testosterone propionate 1 mg/kg/day s.c.) was “neither Compound 102 nor ostarine significantly affected inguinal fat pad weight at any dose” and the “femur BMC, DEXA” value ([1]; after 12 weeks of dosing) was “significantly increased”. The “femur BMD, DEXA” value ([1]; after 12 weeks of dosing) was “significantly increased”, the “lumbar spine bone mineral content (BMC), DEXA” value ([1]; after 12 weeks of dosing) was “significantly increased” and the “lumbar spine bone mineral density (BMD), DEXA” value ([1]; after 12 weeks of dosing) was “significantly increased”. For the same compound, the “antagonism of activation of hMR” value ([2]; antagonist mode) was “but not activation” and the “agonist activity (transactivation)” value ([2]; relative to reference agonist) was “did not transactivate”.

— US11358931B2, “Selective androgen receptor modulators (SARMs) and uses thereof” (priority 2007, dated 2022)
